Results reported in patent CN108635579A.
Where a chain is given by its changes, count along the chain named. No constants are given. Whether binding was seen depends on the method and setting. Binding calls can cover weak binding; strength is not graded here.

Legend:
Assay in all cases: ELISA, antigen coated 50 ng/well, nanobody 100 ng/well, anti-Flag detection
TNFα = biological target: TNFα
aFGF = biological target: aFGF
EGF = biological target: EGF
KGF = biological target: KGF
VEGF = biological target: VEGF

Measured: binding

B1: 抗bFGF纳米抗体 Nb5 (VHH)
VHH: LQESGGGLVQAGGSLRLSCAASGRTFSSGAMGWFRQAPGKEPEFVATITWDGGTTYYADSVKGRYTISRDNAKNTVYLQMNDLKPEDTAVYSCAARSYSEAYYLIGSSDYNYWGQGTQVTVSS
binds: all assays above

B2: 抗bFGF纳米抗体 Nb1 (VHH)
VHH: LQESGGDLVQPGGSLRLSCEVSGSNFSNNDMGWYRQAPGKQREVVAGISSVGRTMYGDPVKGRFTISRDNAKNMVYLQMNRLKAKDTAVYYCHLYGDYRGTGFWGKGTQVTVSS
binds: all assays above

B3: 抗bFGF纳米抗体 Nb3 (VHH)
VHH: B2 VHH with N28I, Q41R, G57A, A84P, K85E
binds: all assays above

B4: 抗bFGF纳米抗体 Nb6 (VHH)
VHH: B2 VHH with N28I, Q41R, A84P, K85E
binds: all assays above

B5: 抗bFGF纳米抗体 Nb2 (VHH)
VHH: B2 VHH with N28I, Q41R, T54A, G57A, A84P, K85E, H93Y
binds: all assays above
